Results on 54 sequences are retold here after PMC7819943, “Rice protein-binding microarrays: a tool to detect cis-acting elements near promoter regions in rice”.

Protein sequences, listed by entry. Tags and fused reporters are not part of them.
UniProt Q0JBA9, entry or part of it: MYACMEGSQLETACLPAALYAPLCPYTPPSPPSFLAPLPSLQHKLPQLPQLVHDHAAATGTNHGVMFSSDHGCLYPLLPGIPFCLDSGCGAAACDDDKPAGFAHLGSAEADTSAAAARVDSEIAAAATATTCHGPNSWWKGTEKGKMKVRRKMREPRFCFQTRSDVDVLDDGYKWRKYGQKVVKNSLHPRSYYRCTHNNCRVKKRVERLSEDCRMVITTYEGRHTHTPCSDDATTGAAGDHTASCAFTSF

This is one part of the list.

For the test, the target named is OsWRKY34 (Oryza sativa, UniProt Q0JBA9 1-250). The test is described as follows: protein-binding microarray (RPBM); PBS, 2% BSA, 51.3 ng/ul salmon testes DNA, 50 uM zinc acetate, 200 nM TF, 25 C, 1 h; high values mean tight binding. Particulars: protein: recombinant; tags: N-terminal polyhistidine and DsRed monomer fusion (pET32a); label: CyDye5-dUTP incorporated in the synthesized complementary strand; 3' TTTTT single-stranded linker to array surface; dsDNA, one strand shown. In a few lines: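 Using Ni–NTA, transcription factors fused N-terminally to polyhistidine and DsRed were purified after expression in E. coli BL21-CodonPlus. These were incubated at 200 nM with a blocked, double-stranded custom Agilent array for 1 h at 25 °C in a buffer containing 50 µM zinc acetate, and the array was washed. The binding signal is per-feature fluorescence intensity (arbitrary units) on an Axon 4000B scanner.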
In the case of “AACTCTGGCACGATTTTTTTTATTGCAGTTTTCGTCGGATCGGAGTCACCTAGTGCAG”, the binding signal is 11400 fluorescence intensity (a.u.).

Consider “CCACCACCGGCCTCGCCGCCGGCTCATCGGTTCTCGAGTACGGAGTCACCTAGTGCAG”, for which the binding signal is 8740 fluorescence intensity (a.u.).

On to “TCCTCTCTGCGCGGCTACCCTCCTTCTCTCAAATCCGGATCGGAGTCACCTAGTGCAG”, for which the binding signal was 8070 fluorescence intensity (a.u.).

In the case of “ATTTTATACCCTTATGATCGCCCTCATTCTCTCTCGCCTACGGAGTCACCTAGTGCAG”, the binding signal is 8840 fluorescence intensity (a.u.).

As for “TTTGATTCCAACTTTTTTCTTCAAACTTTTAACTTTTCCGCGGAGTCACCTAGTGCAG”, the binding signal was 8020 fluorescence intensity (a.u.).

Turning to “CGTGGGAACGAATCTTCTCACATGTTCGTGCGCCGTCACTCGGAGTCACCTAGTGCAG”, the binding signal was 8620 fluorescence intensity (a.u.).

In the case of “CCTGCTGCCTATATTTGTCCAATTCGACACCGATCGATCACGGAGTCACCTAGTGCAG”, the binding signal was 8120 fluorescence intensity (a.u.).

As to “ATTTGACGACCACCGTTATTTATGTCACCGGATTTGGCCACGGAGTCACCTAGTGCAG”, the binding signal was 8160 fluorescence intensity (a.u.).

With “GCTGTCACATCGGATGTTTGACCGGATGTCGGAAGGGGTTCGGAGTCACCTAGTGCAG”, the binding signal is 9670 fluorescence intensity (a.u.).

In the case of “ATAAAAGTGAGAGTACCAACACACTCGGCGCGCTCTTGTACGGAGTCACCTAGTGCAG”, the binding signal was 8460 fluorescence intensity (a.u.).

Take “TACCCCGCCGCCGCGTCCTAGATTGCCGCCGTTCCCTAAACGGAGTCACCTAGTGCAG”: the binding signal is 9920 fluorescence intensity (a.u.).

On to “CCGTTCCGCGACGAGGTGCTCACGGCCACACATTTCTCCACGGAGTCACCTAGTGCAG”, for which the binding signal is 9040 fluorescence intensity (a.u.).

For “ATTTGTGTGTATGAAAAATGGGTCCCGCTCGTATTTCTTTCGGAGTCACCTAGTGCAG”, the binding signal was 9220 fluorescence intensity (a.u.).

Turning to “AACTGCGCAGCTTTTCTGAGTTCTCTTCTTCCTTTTATTCCGGAGTCACCTAGTGCAG”, the binding signal was 11000 fluorescence intensity (a.u.).

For “CTTGAACTCTGGGTCCTTCACGTTTATGATTTGTTCAGATCGGAGTCACCTAGTGCAG”, the binding signal was 8050 fluorescence intensity (a.u.).

Turning to “TTTGCAACATTTGATTACTCGTCTTATTTAATTTTTTTTTCGGAGTCACCTAGTGCAG”, the binding signal is 8230 fluorescence intensity (a.u.).

Take “CTAAACAATATGCAAAGCCTTTGACCTGCTAGCCTTTTTTCGGAGTCACCTAGTGCAG”: the binding signal is 8870 fluorescence intensity (a.u.).

With “CATTTGCCTCTTGTTTTTTCACTTTAGCCGATATGAGTTTCGGAGTCACCTAGTGCAG”, the binding signal is 9220 fluorescence intensity (a.u.).

In the case of “AGCCACATCATCAATATTTTTCTTATCATTAGATTGGATTCGGAGTCACCTAGTGCAG”, the binding signal was 8370 fluorescence intensity (a.u.).

“TGAATTTGTGGTTTTTTTTGGGGAGGGTTTTTTTTTTCTTCGGAGTCACCTAGTGCAG”: the binding signal is 34600 fluorescence intensity (a.u.).

“ACATATTTTTATACGTATATTGCCTTTTATATTGTGTACACGGAGTCACCTAGTGCAG”: the binding signal was 11500 fluorescence intensity (a.u.).

Consider “CTGCGAGTCCTCCTCCTCTTCTCGTCGCCGTGCTACTCTCCGGAGTCACCTAGTGCAG”, for which the binding signal is 8590 fluorescence intensity (a.u.).

Regarding “TTTTACTACCGTACTTTGGAGCAGCTGTTTCTATATAGACCGGAGTCACCTAGTGCAG”, the binding signal was 9430 fluorescence intensity (a.u.).

As for “CCTTGACTTGCACCTTTGACGGAGGCGCCATCTTCGCCGCCGGAGTCACCTAGTGCAG”, the binding signal was 11500 fluorescence intensity (a.u.).

For the sequence “TGCAGGTGGCTCTGTGTTCCGTTCTTGTTTTGTTCCGGTTCGGAGTCACCTAGTGCAG”, the binding signal was 10700 fluorescence intensity (a.u.).

Regarding “TCTCTTGTGCCTCACTCACTTTCATTACTGGAGAGATATGCGGAGTCACCTAGTGCAG”, the binding signal is 9840 fluorescence intensity (a.u.).

Take “TATCTTTAACTGTTGCAACGCATGGGTATTTTTTTCTAGTCGGAGTCACCTAGTGCAG”: the binding signal was 9050 fluorescence intensity (a.u.).

As for “AAAAAAACTAGGACTCACTCCGTTTCACAATGTAAGTCATCGGAGTCACCTAGTGCAG”, the binding signal is 8330 fluorescence intensity (a.u.).

With “TACCACACAGCCAGCTCAGAATTTCCAACCTGAATTGCAACGGAGTCACCTAGTGCAG”, the binding signal was 8260 fluorescence intensity (a.u.).

On to “GCCAGTACGTCATCCGCCAACTCATCCAAATTTGTGTTTACGGAGTCACCTAGTGCAG”, for which the binding signal is 14000 fluorescence intensity (a.u.).

With “ATCAGTATGGACTCTAGTTTCCTATTCATATATTCCTTATCGGAGTCACCTAGTGCAG”, the binding signal is 8280 fluorescence intensity (a.u.).

With “TCAGTCACACTCAACTTTATCAGCCCGTCAGGTCCATTGACGGAGTCACCTAGTGCAG”, the binding signal is 9050 fluorescence intensity (a.u.).

On to “CCATGGGTATGGGTTTAGGCAAGGGGTGGGCGGCAGGGATCGGAGTCACCTAGTGCAG”, for which the binding signal was 15300 fluorescence intensity (a.u.).

With “CGGTGGACTGGTGGTTTTTGCGGGGTTGCAGAATTTGGTGCGGAGTCACCTAGTGCAG”, the binding signal was 9390 fluorescence intensity (a.u.).

Take “TGCTTGACCGAAATTGGAGGTCACTGGGGCAATGCTAGCTCGGAGTCACCTAGTGCAG”: the binding signal is 9600 fluorescence intensity (a.u.).

Regarding “GGTGGGAGTGCGCATTGAGGATAAGCCACTGATGACGTCTCGGAGTCACCTAGTGCAG”, the binding signal is 8600 fluorescence intensity (a.u.).

For “GGAACCCGCCAAGCGAAACACACCCTCTTCTCTTCGTCAACGGAGTCACCTAGTGCAG”, the binding signal was 8150 fluorescence intensity (a.u.).

Consider “TTCATAAGGTGGTGGGCTAGACGATCTGGGTTCGAAGTATCGGAGTCACCTAGTGCAG”, for which the binding signal was 8300 fluorescence intensity (a.u.).

As to “TCTTTTTATAGTCACTTCCCTTTAGGAGTGTATTTATTATCGGAGTCACCTAGTGCAG”, the binding signal is 8550 fluorescence intensity (a.u.).

On to “CGCTGTTCAGACGTTGACTCTCGTTGTTTTTATAGTTTTTCGGAGTCACCTAGTGCAG”, for which the binding signal was 14600 fluorescence intensity (a.u.).

On to “TCCCAAAGGCCTCATTCGCTGCAGCTCACACACAACCTCTCGGAGTCACCTAGTGCAG”, for which the binding signal is 10600 fluorescence intensity (a.u.).

As for “ATCAATATATTGCCGGCACAATTCGCACATATACTATATACGGAGTCACCTAGTGCAG”, the binding signal is 8640 fluorescence intensity (a.u.).

In the case of “GTTGATTGTTCTGCTTATTGATGCTTAGATTTTTCCAATGCGGAGTCACCTAGTGCAG”, the binding signal was 9720 fluorescence intensity (a.u.).

Take “GGGTGGAGCTGGTGTCGTTGCCGCGACCTCATTGGCTAAACGGAGTCACCTAGTGCAG”: the binding signal was 8040 fluorescence intensity (a.u.).

As for “AGAGGGGCGGCGGTGGCGAGCCGGCGATGAACGCGAGGGGCGGAGTCACCTAGTGCAG”, the binding signal was 8130 fluorescence intensity (a.u.).

For the sequence “CTCCTTCCCGTCATTTTTTCATTTTCATTTTCATTTTCTGCGGAGTCACCTAGTGCAG”, the binding signal is 8620 fluorescence intensity (a.u.).

For “CCTATGTTTCTCGAGTAAGATCCTTTCTCCTATGTTAGTTCGGAGTCACCTAGTGCAG”, the binding signal is 9230 fluorescence intensity (a.u.).

Turning to “GATTTCTTCTTCTTGCTTTAGATTTCTTATCCTTCTTCTTCGGAGTCACCTAGTGCAG”, the binding signal was 8710 fluorescence intensity (a.u.).

With “AGAGTAGAGTCCCAACTCCTTTTGCCCTGTTGTTGTTATTCGGAGTCACCTAGTGCAG”, the binding signal was 8900 fluorescence intensity (a.u.).

On to “TCACTACGAGGCTTTATTACTTCATTTTTGCAAAATTCCTCGGAGTCACCTAGTGCAG”, for which the binding signal is 13700 fluorescence intensity (a.u.).

With “ACACATCTCTTTTTGCAAGATCTCTTCTTGTTCATCATCTCGGAGTCACCTAGTGCAG”, the binding signal is 9420 fluorescence intensity (a.u.).

As to “TCCCGCTCCCAATCCATTGCACTTCGCTCCTTCGAGCGCGCGGAGTCACCTAGTGCAG”, the binding signal was 10600 fluorescence intensity (a.u.).

Take “GATTGAGGGGAATGTTCCATGTTTTGTTGAACTCTTTTCCCGGAGTCACCTAGTGCAG”: the binding signal was 9320 fluorescence intensity (a.u.).

As to “TCTATTTACGTGTTCGTTCGTCGTCGCTCCCATCTCCACTCGGAGTCACCTAGTGCAG”, the binding signal was 9090 fluorescence intensity (a.u.).
